Our source for the log2 fold change values is the supplement of paper PMC10849652.

Protein sequences, listed by entry. Tags and fused reporters are not part of them. Lines headed by an entry give the natural chain unless they say otherwise; changes in a name come on top.
UniProt Q15208: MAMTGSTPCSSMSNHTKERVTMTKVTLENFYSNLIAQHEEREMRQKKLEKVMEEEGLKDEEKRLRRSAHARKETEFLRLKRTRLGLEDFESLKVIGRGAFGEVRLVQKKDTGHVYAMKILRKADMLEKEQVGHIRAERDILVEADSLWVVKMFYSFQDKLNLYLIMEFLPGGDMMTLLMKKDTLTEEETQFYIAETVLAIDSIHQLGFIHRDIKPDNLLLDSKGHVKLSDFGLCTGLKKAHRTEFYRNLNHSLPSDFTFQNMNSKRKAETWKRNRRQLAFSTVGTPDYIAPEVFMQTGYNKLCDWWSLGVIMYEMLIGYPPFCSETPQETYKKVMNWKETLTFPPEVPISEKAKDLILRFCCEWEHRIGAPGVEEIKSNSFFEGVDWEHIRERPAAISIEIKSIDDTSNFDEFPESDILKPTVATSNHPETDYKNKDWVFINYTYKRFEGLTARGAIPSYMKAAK
UniProt Q9UH65: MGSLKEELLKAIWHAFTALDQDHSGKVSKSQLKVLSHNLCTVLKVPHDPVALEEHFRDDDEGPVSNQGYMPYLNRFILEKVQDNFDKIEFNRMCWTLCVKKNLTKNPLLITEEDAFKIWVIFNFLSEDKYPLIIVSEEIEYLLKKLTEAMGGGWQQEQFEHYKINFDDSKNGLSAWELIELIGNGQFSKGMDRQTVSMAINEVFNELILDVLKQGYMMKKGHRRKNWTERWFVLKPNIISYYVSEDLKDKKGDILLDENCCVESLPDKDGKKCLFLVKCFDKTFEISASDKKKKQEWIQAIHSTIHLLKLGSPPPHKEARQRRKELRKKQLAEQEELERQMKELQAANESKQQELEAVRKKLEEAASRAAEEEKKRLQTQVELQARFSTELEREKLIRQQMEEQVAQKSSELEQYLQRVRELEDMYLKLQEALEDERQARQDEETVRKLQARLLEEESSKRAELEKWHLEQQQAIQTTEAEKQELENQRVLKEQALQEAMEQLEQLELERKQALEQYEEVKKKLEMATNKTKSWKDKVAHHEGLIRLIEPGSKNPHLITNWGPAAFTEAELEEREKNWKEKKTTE
UniProt Q6P1N9: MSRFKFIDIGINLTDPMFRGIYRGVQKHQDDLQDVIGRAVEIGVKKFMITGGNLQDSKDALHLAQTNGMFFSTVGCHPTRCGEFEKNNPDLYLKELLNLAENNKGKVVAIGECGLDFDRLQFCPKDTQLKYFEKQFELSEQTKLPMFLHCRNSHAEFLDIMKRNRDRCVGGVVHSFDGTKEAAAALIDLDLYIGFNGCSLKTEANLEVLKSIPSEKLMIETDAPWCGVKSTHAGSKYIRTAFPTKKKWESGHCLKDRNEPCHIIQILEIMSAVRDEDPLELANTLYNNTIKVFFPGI
UniProt P37802: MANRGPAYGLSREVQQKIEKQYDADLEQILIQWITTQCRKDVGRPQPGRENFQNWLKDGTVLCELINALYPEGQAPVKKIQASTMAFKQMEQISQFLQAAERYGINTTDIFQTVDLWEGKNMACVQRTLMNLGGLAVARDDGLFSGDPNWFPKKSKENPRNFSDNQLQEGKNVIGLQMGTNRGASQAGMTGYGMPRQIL
UniProt P61764, whole entry, looked up: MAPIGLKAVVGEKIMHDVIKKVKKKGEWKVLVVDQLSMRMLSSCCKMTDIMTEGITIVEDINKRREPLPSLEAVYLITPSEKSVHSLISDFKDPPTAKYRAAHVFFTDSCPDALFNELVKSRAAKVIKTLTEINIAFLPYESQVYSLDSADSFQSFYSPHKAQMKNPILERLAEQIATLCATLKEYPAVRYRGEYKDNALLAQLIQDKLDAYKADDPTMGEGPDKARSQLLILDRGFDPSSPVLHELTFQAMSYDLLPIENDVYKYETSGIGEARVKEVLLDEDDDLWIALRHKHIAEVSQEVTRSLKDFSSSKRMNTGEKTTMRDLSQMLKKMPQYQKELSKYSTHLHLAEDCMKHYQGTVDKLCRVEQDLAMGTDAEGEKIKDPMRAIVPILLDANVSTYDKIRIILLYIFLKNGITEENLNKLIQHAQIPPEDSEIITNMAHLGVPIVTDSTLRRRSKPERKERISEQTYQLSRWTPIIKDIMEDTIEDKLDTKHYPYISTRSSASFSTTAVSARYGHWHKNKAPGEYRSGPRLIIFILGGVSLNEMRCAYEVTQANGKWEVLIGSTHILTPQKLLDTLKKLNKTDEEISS
UniProt P0DMM9: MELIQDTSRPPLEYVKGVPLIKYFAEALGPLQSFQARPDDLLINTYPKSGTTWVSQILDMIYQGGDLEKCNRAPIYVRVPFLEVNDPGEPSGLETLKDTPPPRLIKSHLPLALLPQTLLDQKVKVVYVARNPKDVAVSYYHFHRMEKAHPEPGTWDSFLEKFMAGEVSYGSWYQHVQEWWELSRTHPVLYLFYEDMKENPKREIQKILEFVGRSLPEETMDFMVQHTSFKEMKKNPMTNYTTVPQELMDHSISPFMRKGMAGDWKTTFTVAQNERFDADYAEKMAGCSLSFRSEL
UniProt Q96SI9: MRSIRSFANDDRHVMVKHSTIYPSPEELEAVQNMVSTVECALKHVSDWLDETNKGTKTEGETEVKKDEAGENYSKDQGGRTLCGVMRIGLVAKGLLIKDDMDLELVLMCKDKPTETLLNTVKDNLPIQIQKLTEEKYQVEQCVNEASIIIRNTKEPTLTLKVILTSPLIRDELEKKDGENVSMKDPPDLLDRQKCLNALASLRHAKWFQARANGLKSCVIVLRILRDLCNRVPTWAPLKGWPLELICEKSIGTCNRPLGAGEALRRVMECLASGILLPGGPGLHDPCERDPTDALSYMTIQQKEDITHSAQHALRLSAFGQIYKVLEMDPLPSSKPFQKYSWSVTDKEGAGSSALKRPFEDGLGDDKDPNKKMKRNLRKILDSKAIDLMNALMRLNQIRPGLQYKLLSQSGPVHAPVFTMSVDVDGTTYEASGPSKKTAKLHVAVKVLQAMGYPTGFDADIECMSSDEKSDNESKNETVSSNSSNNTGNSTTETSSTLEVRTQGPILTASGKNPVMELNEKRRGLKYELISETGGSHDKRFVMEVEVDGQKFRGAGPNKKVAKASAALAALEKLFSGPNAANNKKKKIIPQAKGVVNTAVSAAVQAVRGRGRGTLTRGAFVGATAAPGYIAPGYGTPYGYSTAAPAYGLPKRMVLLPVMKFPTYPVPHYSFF
UniProt O43752: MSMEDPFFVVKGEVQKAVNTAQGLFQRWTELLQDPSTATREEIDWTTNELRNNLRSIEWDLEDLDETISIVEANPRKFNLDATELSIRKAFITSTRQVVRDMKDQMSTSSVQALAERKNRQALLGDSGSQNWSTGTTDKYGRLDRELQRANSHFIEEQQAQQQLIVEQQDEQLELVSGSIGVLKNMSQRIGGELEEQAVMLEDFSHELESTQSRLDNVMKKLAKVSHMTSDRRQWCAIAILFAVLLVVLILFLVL
UniProt Q15633: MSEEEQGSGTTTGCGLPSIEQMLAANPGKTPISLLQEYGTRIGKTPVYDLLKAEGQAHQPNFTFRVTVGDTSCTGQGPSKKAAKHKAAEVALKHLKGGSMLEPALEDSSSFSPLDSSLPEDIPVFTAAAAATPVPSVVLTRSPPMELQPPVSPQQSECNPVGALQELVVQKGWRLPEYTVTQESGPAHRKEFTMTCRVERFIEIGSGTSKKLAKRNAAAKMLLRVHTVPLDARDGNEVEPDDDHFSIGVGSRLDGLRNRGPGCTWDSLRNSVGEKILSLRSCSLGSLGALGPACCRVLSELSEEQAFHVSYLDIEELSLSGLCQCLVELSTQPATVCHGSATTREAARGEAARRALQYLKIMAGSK
UniProt Q96A49: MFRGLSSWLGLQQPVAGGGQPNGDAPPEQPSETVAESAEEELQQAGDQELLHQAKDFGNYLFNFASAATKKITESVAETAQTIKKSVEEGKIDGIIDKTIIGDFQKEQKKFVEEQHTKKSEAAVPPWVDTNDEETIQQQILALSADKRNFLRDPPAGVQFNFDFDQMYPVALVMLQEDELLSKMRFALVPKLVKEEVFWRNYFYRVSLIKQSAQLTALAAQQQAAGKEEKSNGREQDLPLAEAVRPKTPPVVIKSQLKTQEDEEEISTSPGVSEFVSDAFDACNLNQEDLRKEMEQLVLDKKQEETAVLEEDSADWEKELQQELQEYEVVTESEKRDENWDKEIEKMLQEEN
UniProt Q4KMP7: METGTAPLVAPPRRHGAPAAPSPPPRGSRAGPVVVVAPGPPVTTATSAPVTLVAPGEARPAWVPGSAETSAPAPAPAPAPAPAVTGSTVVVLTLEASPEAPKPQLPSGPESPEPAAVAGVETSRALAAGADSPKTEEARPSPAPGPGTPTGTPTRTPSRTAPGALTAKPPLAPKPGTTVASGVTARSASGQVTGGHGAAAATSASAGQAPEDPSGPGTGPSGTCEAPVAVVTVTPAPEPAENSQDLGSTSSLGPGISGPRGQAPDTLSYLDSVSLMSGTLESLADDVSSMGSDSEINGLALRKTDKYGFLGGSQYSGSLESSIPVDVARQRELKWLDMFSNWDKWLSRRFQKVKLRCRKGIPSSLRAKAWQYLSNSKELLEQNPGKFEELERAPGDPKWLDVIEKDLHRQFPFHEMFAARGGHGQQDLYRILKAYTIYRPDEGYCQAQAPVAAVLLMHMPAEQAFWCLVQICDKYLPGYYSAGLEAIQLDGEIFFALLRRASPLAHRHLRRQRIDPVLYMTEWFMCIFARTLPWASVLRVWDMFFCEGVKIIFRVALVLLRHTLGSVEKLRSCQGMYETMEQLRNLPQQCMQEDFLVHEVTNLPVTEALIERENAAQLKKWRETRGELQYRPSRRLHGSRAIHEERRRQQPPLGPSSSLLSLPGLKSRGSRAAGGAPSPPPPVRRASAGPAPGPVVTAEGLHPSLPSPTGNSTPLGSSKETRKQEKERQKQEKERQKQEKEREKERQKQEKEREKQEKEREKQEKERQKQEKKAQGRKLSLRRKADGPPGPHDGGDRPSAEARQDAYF
UniProt Q15545, whole entry, looked up: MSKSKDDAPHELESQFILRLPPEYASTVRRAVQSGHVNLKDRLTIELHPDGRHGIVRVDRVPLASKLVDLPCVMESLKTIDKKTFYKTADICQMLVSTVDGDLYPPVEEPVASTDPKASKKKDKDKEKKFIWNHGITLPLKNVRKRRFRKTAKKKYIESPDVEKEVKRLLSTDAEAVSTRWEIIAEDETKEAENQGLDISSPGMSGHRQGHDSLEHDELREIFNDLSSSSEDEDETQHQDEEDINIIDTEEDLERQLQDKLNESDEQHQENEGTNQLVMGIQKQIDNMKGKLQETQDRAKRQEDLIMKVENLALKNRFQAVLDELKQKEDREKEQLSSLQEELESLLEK
UniProt P16949: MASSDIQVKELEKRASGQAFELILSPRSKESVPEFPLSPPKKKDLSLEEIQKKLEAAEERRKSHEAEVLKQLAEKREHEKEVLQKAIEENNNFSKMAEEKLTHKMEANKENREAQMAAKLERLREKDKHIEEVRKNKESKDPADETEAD

The other results are listed elsewhere or left out.

Holding throughout (test): log2 fold change, soluble protein after heating vs DMSO (PISA); higher = thermal stabilisation; K562 cells, 10 uM, 30 min; active = over 0.2 and 3.5 SD of the protein, either way, in both replicates (recomputed)
Compound in assay [1]: CC[C@@H]1C(=O)N(C)c2cnc(Nc3ccc(C(=O)NC4CCN(C)CC4)cc3OC)nc2N1C1CCCC1
The essentials:
(§1)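 Soluble protein was defined as the supernatant after 21,000xg for 90 min. It came from K562 cells at 2×10^6 cells/mL given 10 μM compound for 30 min, heated in aliquots for 3 min across 48°C-58°C, pooled, and extracted in PBS with 0.5% NP-40 at 4°C, and was quantified by TMTpro 16plex LC-MS/MS with equalised channel sums. Thermal stability against control samples, from duplicates, is reported as log2 fold change.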

Compound in a further assay: CC[C@@H]1C(=O)N(C)c2cnc(Nc3ccc(C(=O)N[C@H]4CC[C@H](N5CCN(CC6CC6)CC5)CC4)cc3OC)nc2N1C(C)C [volasertib]
In a few lines: as §1

Compound in assay [2]: CC[C@H](C)N1C=C(C2=C(C=C(C=C21)C3=CN=C(C=C3)N4CCNCC4)C(=O)NCC5=C(C=C(NC5=O)C)C)C
The essentials:
as §1

Compound in another assay: CC[C@H](C)[C@@H](C(=O)N[C@@H]([C@@H](C)O)C(=O)N[C@@H](CC(C)C)C(=O)[C@]1(CO1)C)NC(=O)[C@H]([C@@H](C)CC)N(C)C(=O)C [epoxomicin]
In a few lines:
as §1

Compound in assay [3]: CCn1cc(-c2ccnc3[nH]c(-c4cccc(CN(C)C)c4)cc23)c(-c2ccc(NC(=O)N(C)C)cc2)n1
The essentials:
as §1

Compound in assay [4]: CN(C)CC(=O)Nc1ccc2[nH]c(=O)c3ccccc3c2c1
The essentials:
as §1

Compound in assay [5]: CN1C2=C(C3=C1C(=O)N(N=C3)CC4=CC(=CC=C4)N)SC(=C2)S(=O)C
In a few lines: as §1

Compound in assay [6]: CN1CCC(CNc2ccc3ncc(-c4cccc(OC(F)(F)F)c4)n3n2)CC1
The essentials:
as §1

Compound in assay [7]: CCn1c(C(=O)N(C2CC2)C2CC2)cc2c3c(ncn3C)c(Nc3cc(C)n(C)n3)nc21
In a few lines:
as §1

Compound in the next assay: CN(CCOC1=CC=C(C=C1)C[C@H]2C(=O)NC(=O)S2)C3=CC=CC=N3 (racemic) [rosiglitazone]
In a few lines:
as §1

With STK38 (UniProt Q15208), the log2 fold change is inactive: -0.107 in [1]; active: -0.363 in the assay with volasertib; inactive: 0.106 in assay [2]; inactive: 0.035 in the assay with epoxomicin; inactive: 0.003 in [3]; inactive: 0.059 in [4]. Besides, the log2 fold change in [5] is inactive: -0.005; in assay [6] it was inactive: -0.068.
Regarding SWAP70 (UniProt Q9UH65), the log2 fold change is inactive: 0.012 in [1]; inactive: -0.056 in the assay with volasertib; inactive: 0.024 in assay [2]; inactive: 0.015 in the assay with epoxomicin; inactive: 0.005 in [7]; inactive: -0.001 in assay [3]. Also, the log2 fold change in assay [4] was inactive: -0.05; with rosiglitazone, inactive: 0.008; in assay [5] it was inactive: -0.045; in assay [6], inactive: 0.042.
On to TATDN1 (UniProt Q6P1N9), for which the log2 fold change was inactive: 0.048 in [1]; inactive: 0.081 with volasertib; inactive: -0.008 in assay [2]; inactive: -0.018 in the assay with epoxomicin; inactive: -0.069 in assay [7]; inactive: 0.009 in [3]. The log2 fold change in assay [4] is inactive: -0.014; with rosiglitazone, inactive: -0.007; in assay [5] it was inactive: 0.02; in [6], inactive: -0.01.
With TAGLN2 isoform 2 (UniProt P37802), the log2 fold change in [1] is inactive: -0.064; with volasertib it was inactive: -0.067; in [2], inactive: 0.024; with epoxomicin it was inactive: 0.028; in assay [7], inactive: -0.01; in assay [3], inactive: -0.048. Further, the log2 fold change in assay [4] was inactive: 0.003; in the assay with rosiglitazone, inactive: -0.013; in assay [5] it was inactive: -0.055; in assay [6], inactive: -0.01.
Consider STXBP1 (UniProt P61764), for which the log2 fold change in assay [1] is inactive: -0.03; in the assay with volasertib, inactive: -0.432; in assay [2], inactive: 0.142; with epoxomicin it was inactive: 0.057; in assay [7], inactive: -0.102; in [3] it was inactive: -0.114. In addition, the log2 fold change is inactive: 0.213 in assay [4], inactive: 0.045 in the assay with rosiglitazone, inactive: -0.104 in [5] and inactive: -0.315 in assay [6].
Take SULT1A3 isoform 3 (UniProt P0DMM9): the log2 fold change is inactive: -0.094 in [1]; inactive: -0.02 with volasertib; inactive: -0.036 in assay [2]; inactive: 0.238 in the assay with epoxomicin; inactive: -0.007 in assay [7]; inactive: 0.028 in assay [3]. For the same target, the log2 fold change is inactive: -0.075 in assay [4], inactive: 0.008 in the assay with rosiglitazone, inactive: 0.082 in [5] and inactive: -0.042 in [6].
For the target STRBP (UniProt Q96SI9), the log2 fold change in assay [1] is inactive: 0.169; with volasertib, inactive: 0.166; in assay [2], inactive: -0.075; in the assay with epoxomicin it was inactive: -0.178; in assay [7] it was inactive: -0.008; in assay [4], inactive: -0.038. In addition, the figures for the log2 fold change (with rosiglitazone; in assay [5]) were inactive: -0.067 and inactive: 0.23, respectively.
In the case of SUPT4H1 (UniProt P63272), the log2 fold change in assay [1] was inactive: -0.05; in the assay with volasertib it was inactive: -0.089; in assay [2], inactive: 0.093; with epoxomicin, inactive: 0.059; in [7] it was inactive: -0.016; in assay [3], inactive: -0.134. For the same target, the log2 fold change in assay [4] is inactive: 0.131; with rosiglitazone, inactive: -0.037; in [5], inactive: 0.049; in [6], inactive: -0.175.
On to STX6 (UniProt O43752), for which the log2 fold change in [1] was inactive: 0.01; with volasertib, inactive: -0.037; in assay [2], inactive: 0.016; with epoxomicin, inactive: 0.063; in assay [7], inactive: -0.029; in assay [3], inactive: -0.061. Moreover, the log2 fold change in [4] is inactive: -0.014; with rosiglitazone, inactive: 0.024; in [5], inactive: -0.063; in [6], inactive: -0.119.
TARBP2 (UniProt Q15633): the log2 fold change in [1] was inactive: 0.068; with volasertib, inactive: -0.087; in assay [2], inactive: 0.042; in the assay with epoxomicin, inactive: -0.092; in assay [7], inactive: -0.079; in assay [3], inactive: 0.048. The log2 fold change is inactive: -0.091 in assay [4], inactive: 0 with rosiglitazone, inactive: 0.155 in [5] and inactive: 0.068 in [6].
On to SYAP1 (UniProt Q96A49), for which the log2 fold change was inactive: -0.033 in [1]; inactive: -0.088 with volasertib; inactive: 0.035 in [2]; inactive: 0.05 with epoxomicin; inactive: -0.02 in assay [7]; inactive: -0.008 in [3]. Moreover, the log2 fold change was inactive: -0.01 in assay [4], inactive: 0.039 with rosiglitazone, inactive: -0.038 in [5] and inactive: -0.076 in assay [6].
As to TBC1D10B (UniProt Q4KMP7), the log2 fold change in [1] is inactive: -0.108; with volasertib, inactive: -0.114; in assay [2] it was inactive: 0.025; in the assay with epoxomicin it was inactive: 0.019; in [3], inactive: 0.004; in assay [4] it was inactive: -0.005. Moreover, the log2 fold change was inactive: -0.053 in [5] and inactive: -0.185 in assay [6].
Turning to TAF7 (UniProt Q15545), the log2 fold change is inactive: -0.003 in assay [1]; inactive: -0.059 with volasertib; inactive: 0.027 in assay [2]; inactive: 0.142 in the assay with epoxomicin; inactive: 0.011 in assay [7]; inactive: 0.019 in [3]. Moreover, the log2 fold change was inactive: -0.019 in assay [4], inactive: 0.005 with rosiglitazone, inactive: 0.039 in assay [5] and inactive: 0.036 in assay [6].
Consider STMN1 (UniProt P16949), for which the log2 fold change is inactive: -0.022 in assay [1]; inactive: 0.227 with volasertib; inactive: -0.039 in assay [2]; inactive: -0.007 with epoxomicin; inactive: 0.033 in assay [7]; inactive: 0.044 in [3]. Also, the log2 fold change in assay [4] was inactive: -0.015; in the assay with rosiglitazone it was inactive: 0.021; in assay [5] it was inactive: -0.058; in assay [6] it was inactive: 0.046.
